Columns and labels:
[1] = solid-phase peptide synthesis; settings: whole synthesis
[2] = general procedure: Fmoc solid-phase peptide synthesis; Rink resin; settings: whole synthesis
[3] = scale of the general procedure 1.2 mmole (Example 2, resin split into approximately 6 parts)

Substance	isolated mass [1] [mg]	final HPLC purity [1, 3] [%]	isolated yield [1, 3]	isolated mass ([1]; scale 1.2 mmole) [mg]	crude mass [1] [g]	crude yield [1, 3] [% yield]	crude mass [2] [g]
AcDNal-DpClPhe-DBal-Ser-Tyr-SPL-Leu-Arg-Pr-DAlaNH2	13	96.4	approximate yield 3%				
AcDNal-DpClPhe-DPal-Ser-NicLys-SPL-Npg-Arg-Pro-DAlaNH2	73	99	20% yield				
AcDNal-DpClPhe-DPal-Ser-NicLys-SPL-Npg-IprLys-Pro-DAlaNH2	97	97.5	33% yield				
AcDNal-DpClPhe-DPal-Ser-Tyr-SPL-Leu-Arg-Pro-DAlaNH2	21	98.8	approximate yield 5%				
AcDNal-DpClPhe-DPal-Ser-Tyr-SPL-Npg-Arg-Pro-DAlaNH2	10	93.1	4% yield				
AcDNal-DpClPhe-DTrp-Ser-Tyr-SPL-Leu-Arg-Prx)-DAlaNH2	6	98	approximate yield 2%				
AcDNal-DpCtPhe-DPal-Ser-IprLys-SPL-Npg-Arg-Pro-DAlaNH2	78	98.8	approximative yield 30%				
AcDNal-DpCtPhe-DPal-Ser-Tyr-SPL-Npg-IprLys-Pro-DAlaNH2	85	97.5	approximative yield 20%				
AcSar-His-Nal-Ser-Tyr-SPL-Leu-Arg-Pro-NEt	36	95.1	approximate yield 15%				
AcSar-His-Trp-Ser-Tyr-SPL-Leu-Arg-Pro-Gly-NH2		97.1	approximate yield 39%	57			
AcSar-His-Trp-Ser-Tyr-SPL-Leu-Arg-Pro-NEt	24	96.1	approximate yield 22%				
pGlu-DPhe-Trp-Ser-Tyr-SPL-Leu-Arg-Pro-DAlaNH2	27	99	approximate yield 6%				
pGlu-DPhe-Trp-Ser-Tyr-SPL-Leu-Arg-Pro-Gly-NH2	25	97.3	approximate yield 5%				
pGlu-His-1Nal-Ser-Tyr-SPL-Leu-Arg-Pro-Gly-NH2	54	95.3	approximate yield 13%				
pGlu-His-INal-Ser-Tyr-SPL-Leu-Arg-Pro-NEt	33	97.9	approximate yield 20%				
pGlu-His-Nal-Ser-Tyr-SPL-Leu-Arg-Pro-Gly-NH2	68	99.2	approximate yield 25%				
pGlu-His-Nal-Ser-Tyr-SPL-Leu-Arg-Pro-NEt	21	95.2	approximate yield 28%				
pGlu-His-Trp-DSer-Tyr-SPL-Leu-Arg-Pro-Gly-NH2	75	98.6	approximate yield 27%				
pGlu-His-Trp-MeSer-Tyr-SPL-Leu-Arg-Pro-Gly-NH2	15	96.3	approximate yield 4%				
pGlu-His-Trp-Ser(OBzl)-Tyr-SPL-Leu-Arg-Pro-Gly-NH2	82	96.0	31% yield		0.328		
pGlu-His-Trp-Ser-Tyr-SPL-Cha-Arg-Pro-NEt	16	96	approximate yield 14%				
pGlu-His-Trp-Ser-Tyr-SPL-Hol-Arg-Pro-NEt	26	97.5	approximate yield 10%				
pGlu-His-Trp-Ser-Tyr-SPL-Leu-Arg-Pro-AzaGly-NH2	44	98.2	17% yield			50	0.265
pGlu-His-Trp-Ser-Tyr-SPL-Leu-Arg-Pro-Gly-NH2	56	96.4	approximate yield 11%		0.532		
pGlu-His-Trp-Ser-Tyr-SPL-Leu-Arg-Pro-NEt	19	95.2	approximate yield 8%				
pGlu-His-Trp-Ser-Tyr-SPL-Nle-Arg-Pro-NEt	44	98.3	approximate yield 20%				
pGlu-His-Trp-Ser-Tyr-SPL-Npg-Arg-Pro-NEt	53	98.1	approximate yield 15%				
pGlu-His-Trp-Ser-Tyr-SPL-Tle-Arg-Pro-NEt	6	97.8	approximate yield 3%				
pGlu-His-pClPhe-Ser-Tyr-SPL-Leu-Arg-Pro-Gly-NH2	50	97.2	approximate yield 19%				
